Measured values reported in patent publication US8901133B2, “Heterocyclic compounds and uses thereof” (Infinity Pharmaceuticals, Inc., priority 2010, dated 2014).
At least one structure is not confirmed: it was looked up by name or label, or the drawing left a doubt.

Tests used:
[1] = tested on: haematological malignancies; details: cited from earlier work
PI3K/Akt/mTor signaling = assay: Kinase signaling in blood (phosflow); type: cell-based; details: anti-CD3 stimulated splenocytes or peripheral blood mononuclear cells

| SMILES | lymph node and lymphocyte effect in CLL patients ([1]; CLL patients) | expression of stromal and T-cell derived factors ([1]; CLL, CCL3, CCL4, CXCL13) | single agent activity in lymphoma ([1]; mantle cell lymphoma and refractory non Hodgkin's lymphoma) | activity in CLL ([1]; phase 1 trial, patients with poor prognostic characteristics) | Akt phosphorylation (PI3K/Akt/mTor signaling) | S6 phosphorylation (PI3K/Akt/mTor signaling) |
| --- | --- | --- | --- | --- | --- | --- |
| CC[C@H](Nc1ncnc2[nH]cnc12)c1nc2cccc(F)c2c(=O)n1-c1ccccc1 [CAL-101] | induces rapid lymph node reduction and redistribution of lymphocytes into the circulation | suppresses the expression of stromal and T-cell derived factors including CCL3, CCL4, and CXCL13 | active in mantle cell lymphoma and refractory non Hodgkin's lymphoma | showed activity in CLL | – | – |
| CO[C@H]1C[C@@H]2CC[C@@H](C)[C@@](O)(O2)C(=O)C(=O)N2CCCC[C@H]2C(=O)O[C@H]([C@H](C)C[C@@H]2CC[C@@H](O)[C@H](OC)C2)CC(=O)[C@H](C)/C=C(\C)[C@@H](O)[C@@H](OC)C(=O)[C@H](C)C[C@H](C)/C=C/C=C/C=C/1C [rapamycin] | – | – | – | – | enhances Akt phosphorylation | inhibits S6 phosphorylation |
